No constants are given. Whether binding was seen depends on the method and setting. In cells and extracts the contact can be indirect. Some entries that bind do so weakly or less than the wild type.
Target: DNA methyl Transferase I (DNMT1) (human (endogenous in OCI-M2 and K562)) (UniProt P26358)
Test: co-IP; endogenous proteins of OCI-M2 and K562 cells; precipitated with anti-DNMT1 antibody (control IgG beside it), 2h incubation, washed 3x in 0.1% Triton X-100, 50mM Tris-HCl pH7.4, 300mM NaCl, 5mM EDTA; immunoblot for GATA-1 and PU.1

Sequences of proteins named here, by UniProt entry; tags and fusion partners are left off.
UniProt P26358: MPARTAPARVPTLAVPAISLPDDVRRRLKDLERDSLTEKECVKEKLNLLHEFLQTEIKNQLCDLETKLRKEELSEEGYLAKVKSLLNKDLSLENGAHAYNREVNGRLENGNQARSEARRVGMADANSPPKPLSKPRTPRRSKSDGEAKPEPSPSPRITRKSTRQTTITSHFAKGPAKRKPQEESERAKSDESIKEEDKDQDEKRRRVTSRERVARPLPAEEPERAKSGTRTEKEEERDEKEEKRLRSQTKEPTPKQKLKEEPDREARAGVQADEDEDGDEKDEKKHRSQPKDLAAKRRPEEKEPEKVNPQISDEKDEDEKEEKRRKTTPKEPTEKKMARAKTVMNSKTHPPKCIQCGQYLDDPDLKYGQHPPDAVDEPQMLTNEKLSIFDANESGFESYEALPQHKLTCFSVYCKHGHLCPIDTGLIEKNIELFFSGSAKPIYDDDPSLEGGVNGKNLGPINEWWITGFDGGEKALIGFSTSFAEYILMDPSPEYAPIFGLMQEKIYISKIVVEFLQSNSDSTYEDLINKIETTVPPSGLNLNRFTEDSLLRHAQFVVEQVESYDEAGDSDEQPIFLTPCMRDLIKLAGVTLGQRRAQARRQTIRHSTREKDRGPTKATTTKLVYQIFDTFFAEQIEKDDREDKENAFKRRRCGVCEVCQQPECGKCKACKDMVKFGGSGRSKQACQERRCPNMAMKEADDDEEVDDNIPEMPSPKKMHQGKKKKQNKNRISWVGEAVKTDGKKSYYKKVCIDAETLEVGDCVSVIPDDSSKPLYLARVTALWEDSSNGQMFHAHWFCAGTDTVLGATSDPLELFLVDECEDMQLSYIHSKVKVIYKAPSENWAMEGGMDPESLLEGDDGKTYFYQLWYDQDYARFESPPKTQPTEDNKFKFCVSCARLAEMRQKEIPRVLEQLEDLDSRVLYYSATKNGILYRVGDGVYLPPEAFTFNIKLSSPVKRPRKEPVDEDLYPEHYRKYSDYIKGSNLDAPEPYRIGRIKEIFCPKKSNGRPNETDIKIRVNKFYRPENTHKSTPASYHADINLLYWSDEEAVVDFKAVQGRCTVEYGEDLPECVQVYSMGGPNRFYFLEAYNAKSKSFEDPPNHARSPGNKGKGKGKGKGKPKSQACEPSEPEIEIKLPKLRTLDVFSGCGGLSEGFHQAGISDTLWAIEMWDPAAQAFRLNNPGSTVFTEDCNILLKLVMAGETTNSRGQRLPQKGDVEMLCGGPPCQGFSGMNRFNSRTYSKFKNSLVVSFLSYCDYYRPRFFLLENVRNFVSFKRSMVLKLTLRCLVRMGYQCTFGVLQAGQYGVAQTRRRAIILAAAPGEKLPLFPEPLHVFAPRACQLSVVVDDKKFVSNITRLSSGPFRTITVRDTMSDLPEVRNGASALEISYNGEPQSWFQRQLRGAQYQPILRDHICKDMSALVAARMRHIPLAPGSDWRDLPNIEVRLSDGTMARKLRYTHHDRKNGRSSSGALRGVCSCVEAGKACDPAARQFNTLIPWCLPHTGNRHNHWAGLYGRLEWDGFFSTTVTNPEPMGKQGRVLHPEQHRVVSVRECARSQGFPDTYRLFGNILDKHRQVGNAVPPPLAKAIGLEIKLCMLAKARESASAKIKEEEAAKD
UniProt P15976: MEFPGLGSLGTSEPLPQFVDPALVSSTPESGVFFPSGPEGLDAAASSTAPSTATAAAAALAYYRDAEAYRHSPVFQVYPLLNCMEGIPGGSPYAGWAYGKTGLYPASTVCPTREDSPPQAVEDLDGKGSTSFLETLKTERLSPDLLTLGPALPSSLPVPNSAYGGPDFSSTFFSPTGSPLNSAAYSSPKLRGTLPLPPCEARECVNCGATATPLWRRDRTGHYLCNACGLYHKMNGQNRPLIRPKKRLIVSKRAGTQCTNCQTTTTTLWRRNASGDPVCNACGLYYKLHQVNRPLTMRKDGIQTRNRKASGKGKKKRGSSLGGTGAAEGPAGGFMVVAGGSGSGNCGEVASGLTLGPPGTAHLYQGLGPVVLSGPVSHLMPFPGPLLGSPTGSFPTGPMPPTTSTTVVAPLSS

In the case of GATA-1 (from UniProt P15976 1-413), the binding is reported as “binds”.

Reference: PMC4807078
